Drawing on the supplement of paper PMC7024190, this text covers log for 72 compounds.

Structures are written as SMILES. Structures can show the parent of a compound that is named as a salt. The list shows a part of the results. Single values are uncertain here, since repeats match poorly.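 A first-round screen of about ten thousand compounds sought those raising reporter output, using human embryonic kidney cells briefly transfected with a plasmid carrying a Renilla luciferase gene driven by the HSV-TK promoter.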

The assay relates to HEK 293FT. Briefly: log relative Renilla luciferase luminescence (reporter expression vs reference, reference not stated) (log (base not stated)); higher = higher recombinant reporter expression. The note with it: 10 µM; time after transfection 48 h.
Turning to `CN(C)c1cc(NC(=O)CNC(C)(C)C)c(O)c2c1C[C@H]1C[C@H]3[C@H](N(C)C)C(O)=C(C(N)=O)C(=O)[C@@]3(O)C(O)=C1C2=O` [tigecycline], the log is 0.246.
Turning to `CC(=O)O[C@@H]1CC[C@@]2(C)C(C[C@@H](OC(C)=O)[C@@]3(C)C4=CC(=O)O[C@@H](c5ccoc5)[C@]4(C)CCC23)C1(C)C` (stereo partly drawn) [3alpha-acetoxydihydrodeoxygedunin], the log was determined as 0.0463.
To `Cc1cccc(Nc2ccncc2S(=O)(=O)NC(=O)NC(C)C)c1` [torsemide] belongs 0.191; to `O=C(O)CCCC[C@@H]1CCSS1` [thioctic acid], 0.0382.
Turning to `CC(C)CCC[C@@H](C)[C@H]1CC[C@H]2[C@@H]3CC[C@H]4CC(=O)CC[C@]4(C)[C@H]3CC[C@]12C` [cholestan-3-one], the log is 0.0326.
The figure for `C=C(C)[C@H]1COc2cc3oc(=O)ccc3cc2O1` [obliquin] is 0.0665.
`NC(=O)N1c2ccccc2CC(=O)c2ccccc21` [oxcarbazepine]: the log stood at 0.125.
For `O=C(C=Cc1ccc(O)cc1)c1ccccc1O` [2',4-dihydroxychalcone], the log was 0.0499.
To `COc1cc2oc3cc(OC)c(OC)c(CC=C(C)C)c3c(=O)c2c(O)c1CC=C(C)C` [1-hydroxy-3,6,7-trimethoxy-2,8-diprenylxanthone] belongs -0.00831.
With `CC(C)Cn1cnc2c(N)nc3ccccc3c21` [imiquimod], the log came out at 0.217.
The figure for `CC(=O)OCC(=O)[C@@]1(O)[C@H](OC(C)=O)C[C@H]2[C@@H]3CCC4=CC(=O)C=C[C@]4(C)[C@@]3(F)[C@@H](O)C[C@@]21C` [triamcinolone diacetate] is -0.145.
In the case of `NCCc1cc[nH]n1` [betazole hydrochloride], the log was -0.0431.
`Cc1c(NC(C)C)c(=O)n(-c2ccccc2)n1C` [ramifenazone]: the log was determined as 0.0224.
To `CC(C[N+](C)(C)C)OC(N)=O` (configuration not stated) [bethanechol chloride] belongs -0.128; to `CC(=O)Oc1ccc(-c2coc3c4c(c(CC=C(C)C)c(OC(C)=O)c3c2=O)OC(C)(C)C=C4)cc1OC(C)=O` [pomiferin triacetate], -0.431.
`CCCCCCCCCCOc1cc2c(O)c(C(=O)OCC)cnc2cc1OCC` [decoquinate]: the log was 0.115.
To `CN(C)CCN(Cc1ccc(Cl)cc1)c1ccccn1` [chloropyramine hydrochloride] belongs -0.113.
To `COc1ccc([C@@H]2Sc3ccccc3N(CCN(C)C)C(=O)[C@@H]2OC(C)=O)cc1` [diltiazem hydrochloride] belongs -0.138.
To `Cc1cn([C@H]2C[C@H](N=[N+]=[N-])[C@@H](CO)O2)c(=O)[nH]c1=O` [zidovudine [azt]] belongs 0.0616; to `O=C(O)C[C@H](O)C[C@H](O)/C=C/c1c(C2CC2)nc2ccccc2c1-c1ccc(F)cc1` [pitavastatin calcium], -0.186.
In the case of `Cc1ccc(C)c(OCCCC(C)(C)C(=O)O)c1` [gemfibrozil], the log came to 0.151.
The figure for `COC(=O)c1c(C)c2c(c(C)c1O)OC(=O)c1c(C)c(Cl)c(O)c(Cl)c1O2` [leoidin] is -0.0633; for `O=C(CCCN1CCC(O)(c2ccc(Cl)cc2)CC1)c1ccc(F)cc1` [haloperidol] it is 0.101; for `NC(=O)c1ccc[n+]([C@@H]2O[C@H](COP(=O)([O-])OP(=O)(O)OC[C@H]3O[C@@H](n4cnc5c(N)ncnc54)[C@H](O)[C@@H]3O)[C@@H](O)[C@H]2O)c1` [nadide] it is -0.294.
In the case of `NCC(=O)CCC(=O)O` [aminolevulinic acid hydrochloride], the log turned out to be 0.215.
The figure for `COc1ccc(CN(CCN(C)C)c2ncccn2)cc1` [thonzylamine hydrochloride] is 0.0895; for `COc1c2ccoc2cc2oc(C)cc(=O)c12` [visnagin] it is -0.0201; for `CCCCCC(=O)Cc1cc(O)cc(O)c1C(=O)Oc1cc(CC(=O)CCCCC)c(C(=O)O)c(OC)c1` [arthonioic acid] it is 0.0985.
Take `COc1ccc(-c2coc3cc(O)ccc3c2=O)c(O)c1O` [koparin]: the log was 0.185.
As for `NCCS` [cysteamine hydrochloride], the log is -0.113.
For `COCCOC(=O)C1=C(C)NC(C)=C(C(=O)OC(C)C)C1c1cccc([N+](=O)[O-])c1` (configuration not stated) [nimodipine], the log is 0.228.
The figure for `CN1C(C(=O)Nc2ccccn2)=C(O)c2ccccc2S1(=O)=O` [piroxicam] is -0.0622.
On to `COc1c(C)c2c(c(O)c1C/C=C(\C)CCC(=O)OCCN1CCOCC1)C(=O)OC2` [mycophenolate mofetil], for which the log was -0.209.
Turning to `C[C@]12CCC(=O)C=C1C=C[C@@H]1[C@@H]2CC[C@@]2(C)[C@H]1CC[C@@]21CCC(=O)O1` [canrenone], the log was -0.141.
The figure for `CC1(C)[C@@H](O)CC[C@]2(C)[C@H]3C(=O)C=C4[C@@H]5C[C@@](C)(C(=O)O)CC[C@]5(C)CC[C@@]4(C)[C@]3(C)CC[C@@H]12` [enoxolone] is 0.0271.
To `COc1ccc(CC(=O)c2ccc(O)cc2O)cc1` [ononetin] belongs -0.0363; to `Nc1nc(=O)c2c([nH]1)NCC(CNc1ccc(C(=O)N[C@@H](CCC(=O)O)C(=O)O)cc1)=N2` [dihydrofolic acid], -0.188.
For the compound `CCOC(=O)c1ccc(O)cc1` [ethyl paraben], the log was -0.0943.
The figure for `CC(O)CC(C)(C)O` (configuration not stated) [hexylene glycol] is 0.141.
With `COc1ccc2cc1Oc1ccc(cc1)C[C@H]1c3c(cc4c(c3Oc3cc5c(cc3OC)CCN(C)[C@@H]5C2)OCO4)CCN1C` [cepharanthine], the log was 0.0889.
To `Cn1c(=O)c2[nH]c(Br)nc2n(C)c1=O` [pamabrom] belongs 0.113; to `CC(C)(C)NCC(O)c1ccc(O)c(CO)c1` (configuration not stated) [albuterol], -0.0924; to `Cc1c(OCC(F)(F)F)ccnc1C[S+]([O-])c1nc2ccccc2[nH]1` (configuration not stated) [lansoprazole], 0.0949.
With `O=C(/C=C/c1ccccc1)c1ccc(O)cc1O` [2',4'-dihydroxychalcone], the log turned out to be 0.174.
On to `O=C([O-])C(O)[C@H](O)[C@@H](O)[C@H](O)[C@H](O)CO.O=C([O-])C(O)[C@H](O)[C@@H](O)[C@H](O)[C@H](O)CO.[Ca+2]` (some centres not stated) [calcium gluceptate], for which the log came out at 0.0937.
Take `Cn1c(=O)c2c(ncn2C)n(C)c1=O` [caffeine]: the log was -0.0775.
Take `CN(C)CCCC1(c2ccc(F)cc2)OCc2cc(C#N)ccc21` (configuration not stated) [citalopram hydrobromide]: the log is -1.69.
The figure for `CCCC(CCC)C(=O)O` [valproate sodium] is -0.0137; for `Cc1onc(-c2ccccc2)c1C(=O)N[C@@H]1C(=O)N2[C@@H]1SC(C)(C)[C@@H]2C(=O)O` [oxacillin sodium] it is -0.0406.
As for `COc1cc2c(cc1OC)C(=O)OC2` [metameconine], the log came to 0.0637.
With `OCC(O)CN1CCN(c2ccccc2)CC1` (configuration not stated) [dropropizine], the log is 0.0965.
To `CN(C)CCC(c1ccc(Cl)cc1)c1ccccn1` (configuration not stated) [chlorpheniramine maleate] belongs -0.103.
As for `COc1c2c(cc3occ(-c4ccc5c(c4)OCO5)c(=O)c13)OC(C)(C)C=C2` [methyl robustone], the log stood at 0.00672.
Regarding `COC1=CC(=O)C[C@@H](C)[C@]12Oc1c(Cl)c(OC)cc(OC)c1C2=O` [griseofulvin], the log worked out at 0.0362.
For `CCC(=O)NCC[C@@H]1CCc2ccc3c(c21)CCO3` [ramelteon], the log is -0.111.
Take `CC[C@H](/C=C/[C@@H](C)[C@H]1CC[C@H]2[C@@H]3CCC4=CC(=O)CC[C@]4(C)[C@H]3CC[C@]12C)C(C)C` [stigmasta-4,22-dien-3-one]: the log was determined as 0.0546.
As for `CNC(=O)c1c(I)c(NC(C)=O)c(I)c(C(=O)O)c1I` [iothalamic acid], the log worked out at 0.2.
The figure for `COc1ccc(-c2coc3cc(O)cc(O)c3c2=O)cc1` [biochanin a] is 0.106.
To `CC(=O)O[C@H]1C[C@@H](OC(C)=O)C(C)(C)C2CC(=O)[C@]3(C)C(CC[C@@]4(C)[C@H](C(=O)O)OC(=O)C5OC543)[C@]21C` (some centres not stated) [deacetoxy(7)-7-oxokhivorinic acid] belongs 0.201.
The figure for `CCCCCCCCCCCCCCCCC(C(=O)O)C(O)(CC(=O)O)C(=O)O` (configuration not stated) [agaric acid] is 0.256; for `CCOC(=O)C1=C(C)NC(C)=C(C(=O)OC)C1c1cccc([N+](=O)[O-])c1` (configuration not stated) [nitrendipine] it is 0.185; for `CC1(C)S[C@@H]2[C@H](N3C(=O)[C@@H](c4ccccc4)NC3(C)C)C(=O)N2[C@H]1C(=O)O` [hetacillin potassium] it is 0.053.
Turning to `CCn1cc(C(=O)O)c(=O)c2cc(F)c(N3CCNCC3)cc21` [norfloxacin], the log worked out at 0.00408.
The figure for `O=c1c(O)c(-c2ccc(O)c(O)c2)oc2c(O[C@@H]3O[C@H](CO)[C@@H](O)[C@H](O)[C@H]3O)c(O)cc(O)c12` [gossypin] is 0.0707; for `O=C(c1ccc(OCCN2CCCCC2)cc1)c1c(-c2ccc(O)cc2)sc2cc(O)ccc12` [raloxifene hydrochloride] it is 0.398; for `CC(CN1c2ccccc2Sc2ccccc21)N(C)C` (configuration not stated) [promethazine hydrochloride] it is -0.0474.
The figure for `C=C1[C@H]2CC[C@@]3(C)[C@H](c4ccoc4)OC(=O)C[C@]13O[C@H]1C[C@H](O)C(C)(C)[C@H](CC(=O)OC)[C@]12C` [3-deoxy-3beta-hydroxyangolensic acid methyl ester] is 0.18.
To `O=C(CCCCCCCCCCCCC1CCCC1)Nc1ccc(S(=O)(=O)c2ccc(NC(=O)CCCCCCCCCCCCC3CCCC3)cc2)cc1` [chaulmosulfone] belongs -0.13; to `NS(=O)(=O)c1cc2c(cc1C(F)(F)F)NC(Cc1ccccc1)NS2(=O)=O` (configuration not stated) [bendroflumethiazide], 0.126.
Regarding `S=P(N1CC1)(N1CC1)N1CC1` [thiotepa], the log amounted to 0.0682.
To `CC(C)[C@@H]1CC[C@@H](C)C[C@H]1OC(=O)c1ccccc1` [menthyl benzoate] belongs -0.0304; to `Nc1nc(N)nc(-c2cc(Cl)ccc2Cl)n1` [irsogladine maleate], 0.0791.
